# Measured values as given in PubChem BioAssay AID445 (National Center for Advancing Translational Sciences (NCATS), 2006).
# The other results are listed elsewhere or left out. The main result of the screen is listed elsewhere. These columns were measured beside it and carry no call. Compounds called inactive in the main read-out are mostly missing here. Potencies come from curve fits of mixed quality, noted in brackets.
# Test: IkB Signaling
# Details: ABC-DLBCL IkBa-CBG/CBR dual luciferase ratio (green luciferase fused to IkBa over red control in OCI-Ly3 lymphoma cells), 4 h
# How it was run: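 Luminescence ratio of IκBα-fused green versus native red beetle luciferase in OCI-Ly3 cells, 4 h post-doxycycline with compound; red signal alone, scaled from basal (0%) to zero light (-100%), flagged nonspecific or cytotoxic effects.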
# [1] = measured here: control luc red channel unless noted
smiles,measurement,setting,value
CC(C)CC(=O)Nc1nnc(S(=O)(=O)N2CCCCCC2)s1,AC50,[1],"1.58 µM [rising, partial curve]"
Cc1ccc(C(=O)N(Cc2sccc2C)C2CCS(=O)(=O)C2)cc1 (stereo unspecified),AC50,[1],"3.16 µM [rising, partial curve, poor fit]"
COc1ccc(OC)c(-n2nnc3c(sc4nc(C)c(Br)c(C)c43)c2=O)c1,AC50,[1],"10 µM [falling, partial curve]"
COc1ccc(Cl)cc1NC(=O)c1cc(C)nc2c1c(C)nn2-c1ccccc1,AC50,[1],"10 µM [falling, partial curve, poor fit]"
Cc1cccc(C(=O)Nc2cc3c(cc2N2CCCCC2)n(C)c(=O)c(=O)n3C)c1,AC50,[1],"3.98 µM [rising, partial curve]"
O=C(CC1N=C2c3ccccc3N=C(SCc3ccccc3F)N2C1=O)NCCc1ccccc1 (stereo unspecified),AC50,[1],"39.8 µM [falling, single point]"
CN(C)c1ccc(CN(CC2CCCO2)C(=O)COc2ccccc2Cl)cc1 (stereo unspecified),AC50,[1],"25.1 µM [falling, partial curve]"
CC(C)OCCCNc1ncnc2c1[nH]c1ccc(F)cc12,AC50,[1],"10 µM [falling, partial curve]"
N#Cc1ccc(-c2cccs2)nc1SCc1c(F)cccc1Cl,AC50,[1],"2.51 µM [rising, full curve]"
Cc1ccccc1C(=O)N(Cc1ccc(N(C)C)cc1)Cc1ccco1,AC50,[1],"31.6 µM [falling, single point]"
CCCN(c1ccc(C(C)C)cc1)S(=O)(=O)c1ccc2c(c1)CCN2C(=O)CC,AC50,[1],"39.8 µM [falling, single point]"
O=C(c1cccs1)N(Cc1cccnc1)c1nc2c(Cl)cccc2s1,AC50,[1],"25.1 µM [falling, single point]"
O=C(c1ccc(C(F)(F)F)cc1)N1CCC(c2noc(-c3ccc(S(=O)(=O)N4CCCC4)cc3)n2)CC1,AC50,[1],"3.98 µM [falling, full curve]"
Oc1ccc(-c2nc3ccccn3c2NCc2ccc3c(c2)OCO3)cc1,AC50,[1],"15.8 µM [falling, partial curve]"
COc1ccc(-c2noc(CCC(=O)N(C)c3ccccc3C)n2)cc1,AC50,[1],"25.1 µM [falling, partial curve]"
O=C(Nc1ccccc1O)c1ccccc1O,AC50,[1],"15.8 µM [falling, partial curve]"
O=C(C1=C(O)C(=O)N(Cc2ccco2)C1c1cccnc1)c1cc2ccccc2o1 (stereo unspecified),AC50,[1],"20 µM [rising, single point] [measured here: IkB-luc green channel]"
COc1ccc(Nc2c3c(nc4ccc(NC(=O)/C=C/c5cc(OC)c(OC)c(OC)c5)cc24)CCCC3)cc1OC,AC50,[1],"7.94 µM [falling, full curve]"
Cc1ccc2c(CC(=O)Nc3cccc(Cl)c3C)coc2c1,AC50,[1],"39.8 µM [falling, single point]"
CCOC(=O)c1c(C)[nH]c(C(=O)C(C)OC(=O)c2cccc(OCc3c(C)noc3C)c2)c1C (stereo unspecified),AC50,[1],"10 µM [falling, partial curve]"
Cn1c(=O)n(C/C=C/c2ccccc2)c(=O)c2c1nc1n2CCN1c1ccc(F)cc1,AC50,[1],"39.8 µM [falling, single point]"
CCOC(=O)N1CCN(C(=O)c2ccc(CN(c3ccc(C)c(C)c3)S(C)(=O)=O)cc2)CC1,AC50,[1],"12.6 µM [falling, partial curve]"
CCN1C(=O)c2ccccc2Sc2ccc(NC(=O)COc3ccc(Cl)cc3)cc21,AC50,[1],"0.01 µM [falling, full curve, poor fit]"
O=C(C1CCCN(S(=O)(=O)c2cccc3cccnc23)C1)N1CCN(c2ccc(F)cc2)CC1 (stereo unspecified),AC50,[1],"10 µM [falling, partial curve]"
CCOc1ccc(-n2c(SCC(=O)Nc3cccc(Cl)c3)nc3c(oc4ccccc43)c2=O)cc1,AC50,[1],"10 µM [falling, partial curve]"
O=S(=O)(C/C(=C/CO)S(=O)(=O)c1ccccc1)c1ccccc1,AC50,[1],"6.31 µM [falling, partial curve]"
c1cc2[nH]snc2c2nc(C3CC3)nc12,AC50,measured here: IkB-luc green channel,"10 µM [falling, partial curve]"
same,AC50,measured here: control luc red channel,"12.6 µM [falling, partial curve]"
CCc1nonc1NC(=O)c1oc2ccc(F)cc2c1C,AC50,[1],"0.0794 µM [rising, full curve]"
Cc1cccc(OCC(=O)NC(Cc2c[nH]c3ccccc23)C(=O)O)c1C (stereo unspecified),AC50,[1],"25.1 µM [falling, single point]"
CN1CCN(c2ccccc2NC(=O)c2ccc(-c3ccccc3)cc2)CC1,AC50,[1],"15.8 µM [falling, partial curve]"
COc1ccc(-n2cc(-c3ccccc3)c3c(NC4CCCCC4)ncnc32)cc1,AC50,[1],"39.8 µM [falling, single point]"
Cc1cc(C)nc(SCc2nnc(SCC(=O)Nc3ccc(C)c(C)c3)n2Cc2ccco2)n1,AC50,[1],"31.6 µM [falling, partial curve]"
COc1cccc(C(=O)NCC(c2ccc3c(c2)OCO3)N2CCOCC2)c1 (stereo unspecified),AC50,[1],"3.98 µM [rising, partial curve]"
CCn1c(C(=O)Nc2ccsc2C(=O)OC)cc2sc(Cl)cc21,AC50,[1],"10 µM [falling, partial curve]"
O=C(NCc1ccccc1)C(=O)NCC(c1cccs1)S(=O)(=O)c1ccccc1 (stereo unspecified),AC50,[1],"0.501 µM [rising, full curve, poor fit]"
COc1ccc2cc3cc(C(=O)NCc4ccccc4OC)oc3nc2c1,AC50,[1],"0.794 µM [falling, full curve]"
CN1CCN(C(=O)c2ccc3c(=O)n(Cc4ccc(Cl)cc4)c(=S)[nH]c3c2)CC1,AC50,[1],"12.6 µM [falling, partial curve]"
OC(COCc1ccc(Cl)cc1)CN1CCN(CC(O)COCc2ccc(Cl)cc2)CC1 (stereo unspecified),AC50,[1],"12.6 µM [falling, partial curve]"
CC(=O)c1ccc(N2CCN(C(=O)CCCCn3c(=O)[nH]c4ccsc4c3=O)CC2)cc1,AC50,[1],"10 µM [falling, partial curve]"
CCSc1nnc(NC(=O)c2cc(=O)c3cc(C)c(C)cc3o2)s1,AC50,[1],"3.16 µM [rising, partial curve]"

# Fetched one by one from the list above (2):
smiles,measurement,setting,value
CC(C)OCCCNc1ncnc2c1[nH]c1ccc(F)cc12,AC50,[1],"10 µM [falling, partial curve]"
CCc1nonc1NC(=O)c1oc2ccc(F)cc2c1C,AC50,[1],"0.0794 µM [rising, full curve]"
